# Assay results as given in PubChem BioAssay AID504444 (National Center for Advancing Translational Sciences (NCATS), 2011).
# Screen size: about 360,000 compounds; about 7,500 (2.1%) were called active. Inconclusive results, whose numbers are uncertain, are shown with a selection of clear calls. The call rests on the fitted dose curve; in most records, active means well fitted inhibition curve with a large enough effect; inconclusive means small, poorly fitted or top-dose-only effect, or effect the other way; inactive means flat fitted curve, though single readings scatter. Potencies of inconclusive entries are doubtful fits and often do not repeat.
# Assay: Nrf2 qHTS screen for inhibitors; further: nearly all actives have a fitted effect of over 60% in size
# Settings: A549 ARE-Fluc reporter, luciferase luminescence, 18-24 h; series mostly up to 46 µM
# Method in brief: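 Nrf2 activity is the BugLite luminescence, read 15 min after reagent at room temperature, following CellTiter-Fluor cytotoxicity readout (30 min, 37C). Compound titrations were applied for 18-24 h to 5000 A549 ARE_Fluc cells/well in 5% FBS OPTI-MEM.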
# Potency means the concentration at half of the fitted maximal effect.
row,SMILES,Potency
1,CCCn1c(=O)n(C)c(=O)c2c(SCC(=O)NC34CC5CC(CC(C5)C3)C4)nc(CC(C)C)nc21,inactive
2,O=C(Nc1cccc(C(=O)N2CCN(c3cccc(Cl)c3)CC2)c1)c1ccccc1,"inconclusive: 10.3 µM [falling, partial curve, poor fit]"
3,COc1cc(CNc2ccc3[nH]c(=O)[nH]c3c2)ccc1OCc1ccc(Cl)cc1,inactive
4,Cc1ccc(CN(Cc2ccco2)C(=O)c2ccc(OCC(C)C)cc2)cc1,"inconclusive: 16.4 µM [falling, single point]"
5,CC(C)(C)C(=O)Nc1nc2cc3c(cc2s1)OCO3,"inconclusive: 7.31 µM [activator, partial curve, poor fit]"
6,C/C(=C\c1ccccc1)C(=O)Nc1ccc(S(=O)(=O)Nc2ncccn2)cc1,"inconclusive: 5.17 µM [falling, partial curve, poor fit]"
7,COC1=C(N)C(=O)c2nc(C)ccc2C1=O,"inconclusive: 29.1 µM [falling, single point]"
8,CCC(=O)N1N=C(c2ccc(NS(=O)(=O)c3ccc(C)cc3)cc2)CC1c1ccco1 (centres undefined),active: 18.4 µM
9,Clc1ccc2nc(-c3ccncc3)cc(-c3ccccc3)c2c1,inactive
10,COC(=O)N=Nc1c(O)n(Cc2ccccc2)c2ccccc12,inactive
11,CCCn1c(=O)c2c(nc3n2CCN3Cc2ccco2)n(C)c1=O,inactive
12,O=C(Cn1c(C(F)(F)F)nc2ccccc21)OCC(=O)c1c[nH]c2ccccc12,"inconclusive: 5.8 µM [falling, partial curve, poor fit]"
13,Cc1cccc(-c2nsc(SCC(=O)Nc3cc(C)on3)n2)c1,"inconclusive: 16.4 µM [falling, single point]"
14,Cc1nn(-c2ccc(F)cc2)c(-n2cccc2)c1C(=O)NCCc1ccc(Cl)cc1,"inconclusive: 16.4 µM [falling, single point]"
15,COc1ccc(N(CC(=O)NCc2ccc3c(c2)OCO3)S(C)(=O)=O)cc1OC,"inconclusive: 6.51 µM [activator, single point]"
16,CCCc1[nH]n(-c2nc3ccccc3s2)c(=O)c1C=NCCCN(CC)CC,"inconclusive: 29.1 µM [activator, single point]"
17,CCOc1ccc(NC(=O)c2c[nH]n3c(=O)cc(C4CCN(C(=O)OC(C)(C)C)CC4)nc23)cc1,"inconclusive: 18.4 µM [falling, single point]"
18,CN(Cc1ccccc1)C(=O)c1ccccc1NC(=O)C1CC1,"inconclusive: 1.46 µM [activator, full curve, poor fit]"
19,COc1ccc(NS(=O)(=O)c2ccc(C)c(C(=O)NC3CCN(Cc4ccccc4)CC3)c2)cc1,active: 13 µM
20,O=C(O)c1ccc(NC2=C(n3nnc4ccccc43)C(=O)c3ccccc3C2=O)cc1,inactive
21,CCN(CC)CCOC(=O)c1ccc(NC(=O)Cn2ncc3c2-c2cc(C)ccc2OC3)cc1,inactive
22,CCCCCCSc1ccc([C@H]2N[C@@](CC(C)C)(C(=O)OC)[C@H]3C(=O)N(C)C(=O)[C@@H]23)cc1OC,"inconclusive: 29.1 µM [falling, single point]"

row,SMILES,Potency
1,CCc1ccc(NC(=O)CN2C(=O)C(c3ccc(C)cc3)=NC23CCCCC3)cc1,"inconclusive: 32.6 µM [falling, single point]"
2,O=S(=O)(NC1CCCCC1NS(=O)(=O)c1ccc(F)cc1)c1ccc(F)cc1 (centres undefined),"inconclusive: 0.259 µM [falling, full curve, poor fit]"
3,CCOC(=O)C1(Cc2cccc(Cl)c2)CCCN(C(=O)c2ccoc2C)C1 (centres undefined),"inconclusive: 0.206 µM [falling, full curve, poor fit]"
4,CCc1ccc(CNC(=O)Cn2nc(C)n3c(cc4cc(C)ccc43)c2=O)cc1,inactive
5,O=c1c2cc(F)ccc2sn1-c1ccc(F)cc1,inactive
6,CCN(CC)S(=O)(=O)c1cc(C(=O)Nc2ccccc2[N+](=O)[O-])ccc1Cl,"inconclusive: 18.4 µM [activator, partial curve]"
7,CCc1ccc(-c2cn(C3CCCCC3)c(=S)[nH]2)cc1,"inconclusive: 18.4 µM [falling, single point]"
8,CN(C)c1ccc(NC(=S)NC(=O)/C=C/c2ccco2)cc1,"inconclusive: 25.9 µM [activator, partial curve, poor fit]"
9,NC(=O)C1(N2CCCCC2)CCN(C(=O)NC2CCCCC2)CC1,"inconclusive: 6.51 µM [activator, full curve, poor fit]"
10,CCOC(=O)c1cccc(NC(=O)c2cc3ccccn3n2)c1,"inconclusive: 1.03 µM [falling, full curve, poor fit]"
11,Cc1nonc1OCCNC(=O)C12CC3CC(CC(C3)C1)C2,inactive
12,CC(=O)NCCCc1nc2ccccc2n1Cc1c(F)cccc1Cl,inactive
13,CCCCOc1ccc(C(=O)N/C(=C\c2ccc(OC)cc2)C(=O)OCc2ccco2)cc1,"inconclusive: 25.9 µM [falling, single point]"
14,Fc1ccc2nc(Nc3nc4cc5c(cc4s3)OCO5)sc2c1,"inconclusive: 16.4 µM [activator, partial curve]"
15,COc1ccccc1CC(=O)Nc1cc(C)ccn1,"inconclusive: 9.2 µM [activator, partial curve, poor fit]"
16,Cc1ccc2nc(NC(=O)c3ccc(Cl)s3)sc2c1,"inconclusive: 18.4 µM [activator, partial curve]"
17,COc1cc(NC(=O)Nc2ccc(C)cc2)cc([N+](=O)[O-])c1,"inconclusive: 25.9 µM [falling, single point]"
18,CN(C)c1ccc(/C=N/NC(=O)C(=O)/C=C2\NC3(CCCC3)Cc3ccccc32)cc1,"inconclusive: 13 µM [falling, partial curve, poor fit]"
19,COC(=O)c1cc2oc3ccccc3c2n1CC(=O)Nc1ccc(Cl)cc1F,"inconclusive: 29.1 µM [activator, single point]"
20,Cc1ccc(Cl)cc1N=C(N)N=C(N)N,"inconclusive: 23.1 µM [falling, single point]"
21,COc1cccc(C(=O)Nc2ccc(S(=O)(=O)N3CCCCC3)cc2)c1OC,"inconclusive: 13 µM [falling, partial curve, poor fit]"
22,Cc1ccccc1N/N=C1\CCCNC1=O,"inconclusive: 29.1 µM [activator, single point]"

# 13 entries from above, sorted by molecular weight, smallest number first.
row,SMILES,Potency
20,Cc1ccc(Cl)cc1N=C(N)N=C(N)N,"inconclusive: 23.1 µM [falling, single point]"
15,COc1ccccc1CC(=O)Nc1cc(C)ccn1,"inconclusive: 9.2 µM [activator, partial curve, poor fit]"
5,O=c1c2cc(F)ccc2sn1-c1ccc(F)cc1,inactive
7,CCc1ccc(-c2cn(C3CCCCC3)c(=S)[nH]2)cc1,"inconclusive: 18.4 µM [falling, single point]"
11,Cc1nonc1OCCNC(=O)C12CC3CC(CC(C3)C1)C2,inactive
16,Cc1ccc2nc(NC(=O)c3ccc(Cl)s3)sc2c1,"inconclusive: 18.4 µM [activator, partial curve]"
8,CN(C)c1ccc(NC(=S)NC(=O)/C=C/c2ccco2)cc1,"inconclusive: 25.9 µM [activator, partial curve, poor fit]"
9,NC(=O)C1(N2CCCCC2)CCN(C(=O)NC2CCCCC2)CC1,"inconclusive: 6.51 µM [activator, full curve, poor fit]"
4,CCc1ccc(CNC(=O)Cn2nc(C)n3c(cc4cc(C)ccc43)c2=O)cc1,inactive
19,COC(=O)c1cc2oc3ccccc3c2n1CC(=O)Nc1ccc(Cl)cc1F,"inconclusive: 29.1 µM [activator, single point]"
1,CCc1ccc(NC(=O)CN2C(=O)C(c3ccc(C)cc3)=NC23CCCCC3)cc1,"inconclusive: 32.6 µM [falling, single point]"
18,CN(C)c1ccc(/C=N/NC(=O)C(=O)/C=C2\NC3(CCCC3)Cc3ccccc32)cc1,"inconclusive: 13 µM [falling, partial curve, poor fit]"
13,CCCCOc1ccc(C(=O)N/C(=C\c2ccc(OC)cc2)C(=O)OCc2ccco2)cc1,"inconclusive: 25.9 µM [falling, single point]"

# Following part.

row,SMILES,Potency
1,CC(OC(=O)c1ccc2noc(-c3ccccc3)c2c1)C(N)=O (centres undefined),"inconclusive: 18.4 µM [activator, partial curve]"
2,Cc1ccc(C(=O)Nc2ccn(Cc3ccc(F)cc3)n2)o1,"inconclusive: 18.4 µM [activator, partial curve]"
3,O=C(C(Sc1ccccc1)c1ccccc1)N1CCN(c2ccccc2F)CC1 (centres undefined),"inconclusive: 25.9 µM [falling, single point]"
4,Cc1ccc2[nH]c(=O)c(C(c3nnnn3CC3CCCO3)N3CCCc4ccccc43)cc2c1 (centres undefined),"inconclusive: 29.1 µM [falling, single point]"
5,CCC(=O)Nc1cccc(-c2ccc(N3CCC(C)CC3)nn2)c1,"inconclusive: 0.082 µM [activator, full curve, poor fit]"
6,COc1cccc(C(=O)Nc2cc3c(cc2Br)OCCCO3)c1,"inconclusive: 16.4 µM [activator, partial curve]"
7,O=C(CSc1nc2[nH]ncc2c(=O)[nH]1)NCCc1ccccc1,"inconclusive: 32.6 µM [falling, partial curve, poor fit]"
8,COc1cccc(CNC(=O)c2ccc(-c3nc(COc4ccccc4)c(C)o3)cc2)c1,"inconclusive: 18.4 µM [falling, single point]"
9,CCCn1c(=O)c(C(=O)Nc2ncccc2C)c(O)c2ccccc21,"inconclusive: 29.1 µM [falling, single point]"
10,CCOC(=O)c1sc2nc(C)nc(N3CCCCC3C)c2c1C (centres undefined),"inconclusive: 20.6 µM [falling, single point]"
11,Cc1ccc(CCNC(=O)c2cc3c(s2)-c2c(C)cccc2OC3)cc1,"inconclusive: 29.1 µM [falling, single point]"
12,CCOc1ccc(C2CC(c3c(O)n(C4CCCCC4)c(=O)[nH]c3=O)=Nc3ccccc3S2)cc1 (centres undefined),"inconclusive: 32.6 µM [falling, single point]"
13,CCOC(=O)N1CCc2c(sc3c2c(=O)n(-c2ccccc2C(F)(F)F)c(=O)n3Cc2ccccc2C)C1,"inconclusive: 20.6 µM [falling, single point]"
14,OC(CNCCc1ccc(Cl)cc1)COc1ccc2ccccc2c1 (centres undefined),"inconclusive: 20.6 µM [falling, partial curve, poor fit]"
15,Cc1cc(CN(C)C(=O)c2cc(COc3ccc4ncccc4c3)on2)on1,active: 4.61 µM
16,COC(=O)NC(=C(Cl)Cl)S(=O)(=O)c1ccccc1,"inconclusive: 0.651 µM [activator, full curve, poor fit]"
17,CCc1ccc(C(C)NC(=O)c2cc(C)oc2C)cc1 (centres undefined),"inconclusive: 29.1 µM [falling, single point]"
18,Cc1noc(C)c1COC(=O)Cc1ccc(Cl)c(Cl)c1,"inconclusive: 29.1 µM [activator, partial curve, poor fit]"
19,CCC1(O)CC2CN(CCc3c([nH]c4ccccc34)C(C(=O)OC)(c3cc4c(cc3OC)N(C=O)C3C(O)(C(=O)OC)C(OC(C)=O)C5(CC)C=CCN6CCC43C65)C2)C1 (centres undefined),"inconclusive: 1.03 µM [activator, full curve]"
20,COc1ccc(-c2csc(NC(=S)NC(=O)c3ccc4ccccc4c3)n2)cc1OC,active: 9.2 µM
